Measured values taken from PubChem BioAssay AID1487 (National Center for Advancing Translational Sciences (NCATS), 2009).
Values joined by “and” are separate entries in the source; they are usually repeats but may differ in a detail not shown here. Equal entries are not always repeated. This is one part of the list. These are further read-outs of the screen, such as a control signal, another cell line or another target. No call is given for them. Compounds called inactive in the main read-out are mostly missing here. The note in brackets gives the kind of curve behind each potency; many fits are weak.

Assay: qHTS Assay for Modulators of Lamin A Splicing
Conditions: HeLa LMNA splicing GFP/RFP minigene ratio, 48 h
In short: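 Read-out is the ratio of GFP to DsRed2 object intensity, acquired by 488 nm laser-scanning cytometry on HeLa lamin A-EGFP minigene reporter cells. Compound incubation 48 hrs at 37 °C in Opti-MEM with 2% FBS; DMSO 0.5% final.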

[1] = measured here: GFP splicing reporter channel
[2] = measured here: RFP viability control channel

## CN(C)c1nc(N(C)C)nc(N(C)C)n1
[1]
  AC50: 14.1 µM [falling, single point] and 4.47 nM [falling, full curve, poor fit]
[2]
  AC50: 0.794 µM [falling, full curve]

## CCC(=O)Nc1nonc1-c1nc2ccccc2n1CCC(C)C
[1]
  AC50: 35.5 µM [rising, single point]
[2]
  AC50: 35.5 µM [rising, single point]

## Cn1c(=O)cc(SCC(=O)N2CCN(Cc3ccc4c(c3)OCO4)CC2)c2ccccc21
[2]
  AC50: 12.6 µM [rising, single point]

## O=[N+]([O-])c1ccccc1S(=O)(=O)N1CCc2ccccc2C1
[2]
  AC50: 0.02 µM [falling, full curve, poor fit]

## COc1cccc(C(=O)CN2C3=NCCCN3c3ccccc32)c1
[1]
  AC50: 11.2 µM [rising, partial curve, poor fit]
[2]
  AC50: 11.2 µM [rising, partial curve]

## COC(=O)C1=C(Nc2ccc(C)cc2)C=C(C)C(C(=O)OC)C1c1cccc(OC)c1 (stereo not given)
[2]
  AC50: 5.62 µM [rising, single point]

## O=P(O)(O)OC[C@H](O)CO
[1]
  AC50: 0.0224 µM [falling, full curve, poor fit]

## CCOc1ccccc1NC(=S)N(CCCN1CCOCC1)Cc1cn(C)c2ccccc12
[2]
  AC50: 22.4 µM [rising, single point]

## COc1cc(C2c3cc4c(cc3C(O[C@@H]3OC5COC(c6cccs6)OC5C(O)C3O)C3COC(=O)C23)OCO4)cc(OC)c1O (stereo not given in full)
[1]
  AC50: 0.562 µM [rising, single point]

## Cc1cccc(OCC(=O)Nc2ccc(C(=O)c3ccc(C(=O)O)cc3)cc2)c1
[2]
  AC50: 12.6 µM [falling, partial curve, poor fit]

## O=[N+]([O-])c1ccc(CSc2ncnc3c2ncn3[C@@H]2O[C@H](CO)[C@H](O)[C@H]2O)cc1
[2]
  AC50: 0.000891 µM [falling, full curve, poor fit]

## CCn1c(SCC(=O)Nc2c(C)cccc2C)nnc1-c1nonc1NC(C)=O
[1]
  AC50: 2 µM [falling, partial curve, poor fit]
[2]
  AC50: 3.16 µM [falling, partial curve]

## Nc1ccn([C@@H]2O[C@@H](CO)[C@@H](O)[C@H]2O)c(=O)n1
[2]
  AC50: 1 µM [rising, full curve, poor fit]

## C=CC1=C2C=C(C3CC3)N(Cc3ccc4c(c3)OCO4)C=C2C(=O)C(C)(OC(=O)c2ccco2)C1=O (stereo not given)
[2]
  AC50: 0.447 µM [falling, partial curve, poor fit]

## O=C(COC(=O)c1n[nH]c2ccccc12)c1cc(F)ccc1F
[1]
  AC50: 0.562 µM [rising, full curve, poor fit]

## CCC1C(=O)CC(c2ccccc2)NC1c1ccccc1 (stereo not given)
[2]
  AC50: 20 µM [rising, single point]

## COC(=O)CSc1nc2ccc(N)cc2s1
[1]
  AC50: 0.00447 µM [falling, full curve, poor fit]
[2]
  AC50: 0.00316 µM [falling, full curve]

## COc1ccccc1/C=C(/CC(=O)NCc1ccc2c(c1)OCO2)c1nc2ccccc2s1
[1]
  AC50: 0.0398 µM [rising, full curve, poor fit]
[2]
  AC50: 17.8 µM [rising, partial curve]

## CS(=O)(=O)N1CCc2cc(-c3csc(NC(=O)Cc4ccccc4)n3)ccc21
[2]
  AC50: 12.6 µM [rising, partial curve]

## CCCN1C(=O)C2(SC(NC(C)=O)=NN2C(C)=O)c2cc(C)ccc21 (stereo not given)
[1]
  AC50: 0.891 µM [rising, full curve]

## COc1cccc(N2CC(O)=C(c3nc4ccccc4s3)C2=N)c1
[1]
  AC50: 2.51 µM [falling, partial curve, poor fit]
[2]
  AC50: 20 µM [falling, partial curve, poor fit]

## Nc1cc(N2CCCCC2)c(Cl)cc1[N+](=O)[O-]
[2]
  AC50: 10 µM [rising, partial curve, poor fit]

## O=C(c1ccccc1)c1nn(-c2ccc(Cl)cc2)c(=O)cc1C(F)(F)F
[1]
  AC50: 4.47 µM [falling, full curve]
[2]
  AC50: 7.08 µM [falling, partial curve]

## Cc1ccc(C(=O)OCC(=O)c2c[nH]c3ccccc23)cc1S(=O)(=O)N1CCCCC1
[1]
  AC50: 12.6 µM [rising, partial curve]
[2]
  AC50: 25.1 µM [rising, single point]

## COc1ccc(Cc2nc3ccc(C(=O)NCc4ccccc4Cl)cc3o2)cc1
[1]
  AC50: 28.2 µM [falling, single point]
[2]
  AC50: 0.01 µM [falling, full curve, poor fit]

## COc1ccc(NC(=O)CSc2nnc(-c3cccs3)n2Cc2ccco2)cc1OC
[2]
  AC50: 8.91 µM [rising, partial curve, poor fit]

## CCN1CCN(c2ccc([N+](=O)[O-])cc2C(=O)c2ccc(Cl)cc2)CC1
[1]
  AC50: 5.62 µM [falling, single point]
[2]
  AC50: 31.6 µM [falling, single point]

## O=C(NNC(=S)Nc1ccc(Cl)cc1)c1ccccc1OC(F)F
[1]
  AC50: 12.6 µM [rising, partial curve]
[2]
  AC50: 11.2 µM [rising, partial curve]

## CCN1CCc2c(C#N)c(N3CCCCC3)nc(N3CCOCC3)c2C1
[1]
  AC50: 17.8 µM [falling, single point]
[2]
  AC50: 22.4 µM [falling, single point]

## CCOc1ccc(CC(=O)NCC(c2cccs2)S(=O)(=O)c2ccc(F)c(C)c2)cc1 (stereo not given)
[1]
  AC50: 2.24 µM [rising, partial curve]
[2]
  AC50: 4.47 µM [rising, single point]

## O=C(Nc1ncc(Cc2ccccc2)s1)c1cccs1
[1]
  AC50: 35.5 µM [rising, single point]
[2]
  AC50: 35.5 µM [rising, single point]

## Cc1ccc(OCCCn2ccnc2)c([N+](=O)[O-])c1
[2]
  AC50: 5.62 µM [rising, partial curve, poor fit]

## Cc1cccc(NC(=S)NCc2ccc3[nH]c4c(c3c2)CCCC4)c1
[1]
  AC50: 31.6 µM [rising, single point]
[2]
  AC50: 35.5 µM [rising, single point]

## Cc1cc(Cl)ccc1OCC(=O)NCCOC(=O)Nc1sc(=S)n(C)c1C
[2]
  AC50: 31.6 µM [rising, single point]

## O=c1nc2ccccc2c2n1CC(CN1CCN(C(c3ccccc3)c3ccccc3)CC1)N2 (stereo not given)
[1]
  AC50: 11.2 µM [rising, partial curve, poor fit]

## Cc1ccc(Sc2c([N+](=O)[O-])c(C)nn2C)cc1
[2]
  AC50: 3.98 µM [falling, full curve, poor fit]

## CCC1(CC)Cc2ccccc2-c2nc(CN3CCOCC3)[nH]c(=O)c21
[1]
  AC50: 35.5 µM [rising, single point]

## CCn1ncc(Br)c1C(=O)Nc1cc(C)ccc1F
[2]
  AC50: 11.2 µM [falling, partial curve, poor fit]

## O=C(Nc1nnc(S(=O)(=O)N2CCc3ccccc32)s1)c1cccc(Cl)c1
[1]
  AC50: 28.2 µM [falling, partial curve, poor fit]
[2]
  AC50: 5.01 µM [falling, partial curve, poor fit]

## Cn1c(=O)n(C)c2cc(NS(=O)(=O)c3ccc(Cl)s3)ccc21
[1]
  AC50: 1.58 µM [falling, partial curve, poor fit]

## CN(Cc1ccccc1)S(=O)(=O)c1ccc(C(=O)Nc2nnc(C3CC3)o2)cc1
[1]
  AC50: 2.82 µM [falling, full curve]
[2]
  AC50: 17.8 µM [falling, single point]

## C=CCN(c1ccccc1OC)S(=O)(=O)c1cccc(C(=O)OCC(=O)c2c[nH]c3ccccc23)c1
[2]
  AC50: 22.4 µM [rising, partial curve]

## CSc1ccccc1NC(=O)COC(=O)c1ccccc1O
[1]
  AC50: 0.00316 µM [rising, full curve, poor fit]
[2]
  AC50: 0.0112 µM [rising, full curve, poor fit]

## COc1ccc(NS(=O)(=O)c2cccc(NC(=O)NC3CCCCC3)c2)cc1
[2]
  AC50: 10 µM [rising, partial curve]

## CN1C=CC=C/C1=C1\SC(=S)N(CC(=O)O)C1=O
[2]
  AC50: 0.0282 µM [falling, full curve, poor fit]

## C[N+]1(CCCOC(=O)C2(c3ccccc3)CCCC2)CCOCC1
[1]
  AC50: 22.4 µM [rising, single point]

## O=C(NCc1ccccc1)C1CC(=O)N(C2CCCCCC2)C1 (stereo not given)
[1]
  AC50: 0.00501 µM [falling, full curve, poor fit]
[2]
  AC50: 0.00501 µM [falling, full curve]

## O=C(NC1CCCCC1)C(c1ccc2ncccc2c1)N(Cc1ccc2c(c1)OCO2)C(=O)c1ccc2c(c1)OCCO2 (stereo not given)
[2]
  AC50: 12.6 µM [rising, partial curve]

## NNC(=O)c1cc(O)c(O)c(O)c1
[2]
  AC50: 0.02 µM [falling, full curve, poor fit]

## Cc1cc(NS(=O)(=O)c2ccc3oc(=O)c4ncn(C)c4c3c2)ccc1Br
[1]
  AC50: 35.5 µM [falling, partial curve, poor fit]
[2]
  AC50: 35.5 µM [falling, single point]

## CC(=O)N1CCN(c2ccc(NC(=S)NC(=O)COc3ccc(C(C)(C)C)cc3)cc2)CC1
[1]
  AC50: 5.62 µM [rising, partial curve]
[2]
  AC50: 12.6 µM [rising, partial curve]

## C=C(C)COc1ccc(-c2nc(N)ncc2-c2ccc(OC)cc2)c(O)c1
[1]
  AC50: 12.6 µM [falling, partial curve]
[2]
  AC50: 12.6 µM [falling, partial curve]
